# Laboratory results as given in patent US6852888B2, “Carboxylic acid derivatives” (Syngenta Crop Protection, Inc., priority 1998, dated 2005).
# Some of these results come from one statement about several compounds together.
# Tested on: Heliothis virescens
# Assay: Ovicidal action against Heliothis virescens
# Type: in vivo
# Settings: 400 ppm aqueous acetone test solution, egg deposits immersed, evaluated 6 days later vs untreated controls
compound,measurement,value
"Cc1cc(OC(F)(F)C(F)Cl)ccc1NC(=O)CCCC=C(F)F (stereo not shown) [Compound 1.1, 6,6-Difluorohex-5-enoic acid [4-(2-chloro-1,1,2-trifluoroethoxy)-2-methylphenyl]amide]",% reduction in hatching rate (effective),more than 80%
